Out of some 1,400 compounds screened, fewer than 10 were called active.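 Rule for the calls: active = fluorescence-lowering compounds whose fitted half-maximal concentration is at or below ten times the highest valid dose tested; inconclusive = flat curve at 30 to 70% inhibition, or poor fit; inactive = the rest.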 The list shows a part of the results.
Each compound was assayed against Histone deacetylase 3 (Homo sapiens) (UniProt O15379) (assay: inhibition of human HDAC3 enzymatic activity – biochemical, fluorescence, cherry-picked samples, counter-screen for JMJD2C/GASC1 demethylase inhibitor project, dose response (AID 485318;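 note: enzyme preincubated with compound before substrate and trypsin were added; 0% = neutral control wells and -100% = SAHA positive control wells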)). Settings: recombinant HDAC3, fluorogenic peptide/trypsin coupled; at 12 µM (top of the series).

Amino acid sequences for entries named in this document (tags omitted). A change or cut given only in a name is not applied to a line headed by its entry.
UniProt O15379: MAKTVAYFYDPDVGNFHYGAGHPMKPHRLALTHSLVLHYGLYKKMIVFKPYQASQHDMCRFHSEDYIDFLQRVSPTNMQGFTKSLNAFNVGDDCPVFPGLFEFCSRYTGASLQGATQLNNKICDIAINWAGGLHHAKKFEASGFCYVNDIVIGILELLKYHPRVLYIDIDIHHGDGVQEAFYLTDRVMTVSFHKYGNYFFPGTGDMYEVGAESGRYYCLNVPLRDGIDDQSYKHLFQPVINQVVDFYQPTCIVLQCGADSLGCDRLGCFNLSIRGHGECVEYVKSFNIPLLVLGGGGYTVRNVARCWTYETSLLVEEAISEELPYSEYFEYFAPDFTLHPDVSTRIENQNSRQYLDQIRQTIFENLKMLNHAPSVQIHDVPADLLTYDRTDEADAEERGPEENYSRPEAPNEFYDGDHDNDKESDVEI

| Compound | activity change, negative = inhibition |
| --- | --- |
| O=C(COC(=O)c1cccc(S(=O)(=O)NCc2ccccc2)c1)Nc1ccccc1OC(F)F | inactive: -0.814% |
| COc1ccccc1/C=C1/SC(=S)N(C(C)C(=O)NC2C=CS(=O)(=O)C2)C1=O (configuration not stated) | inactive: 0.888% |
| CCN(CC)S(=O)(=O)c1ccc(N2CCOCC2)c(NC(=O)c2ccc3c(c2)OCCO3)c1 | inactive: -0.353% |
| CCNC(=O)C/C(C)=N/NC(=O)C12CC3CC(CC(C3)C1)C2 | inactive: -0.0941% |
| COC(=O)[C@]1(Cc2ccccc2)N[C@H](CN(C)C(=O)Nc2ccccc2)[C@@H]2C(=O)N(C)C(=O)[C@@H]21 | inactive: 0.446% |
| O=C(OCc1nnc(-c2ccccc2)o1)c1cc(S(=O)(=O)N2CCOCC2)c(Cl)cc1Cl | inactive: -0.233% |
| CN1C(=O)Cc2cc(S(=O)(=O)NCCc3ccc(Cl)cc3)ccc21 | inactive: -0.189% |
| COc1cc(NS(=O)(=O)c2ccc(NC(=O)c3ccc(C)o3)cc2)nc(OC)n1 | inactive: 0.178% |
| Cc1c(C(=O)Nc2ccc3c(c2)OCO3)sc2ncn(CC(=O)N3CC(C)CC(C)C3)c(=O)c12 (configuration not stated) | inactive: -0.0617% |
| COc1ccc(NC(=O)Nc2cccc3c2O[C@H](CN(C)C(=O)NC(C)C)[C@@H](C)CN([C@H](C)CO)C3=O)cc1 | inactive: -0.142% |
| CCn1c(SCC(=O)N2CCc3ccccc32)nnc1-c1ccco1 | inactive: 0.152% |
| CCOC(=O)c1oc2ccccc2c1COC(=O)C(C)NC(=O)c1ccco1 (configuration not stated) | inactive: 0.721% |
| CC1=NN(c2nc(-c3ccc(C#N)cc3)cs2)C(=O)C1 | inactive: 0.637% |
| Cc1cccc(N2CC(C(=O)Nc3nnc(SCC(=O)Nc4nccs4)s3)CC2=O)c1 (configuration not stated) | inactive: 0.958% |
| CCOC(=O)CSc1nc2sc(C)c(C)c2c(=O)[nH]1 | inactive: 0.571% |
| CSC1=NCCN1C(=O)c1cccc(C(F)(F)F)c1 | inactive: 0.495% |
| Cn1nc(-c2ccccn2)nc2c(=O)n(C)c(=O)nc1-2 | inactive: 0.336% |
| O=C(Nc1cccnc1)c1ccccc1Oc1ccccc1 | inactive: 0.526% |
| Cc1sc2ncnc(NCCCO)c2c1C | inactive: 0.736% |
| CC(C)(C)NC(=O)CSc1nc2cccnc2n1C1CCCCC1 | inactive: 0.349% |
| Cc1cccc(C)c1NS(=O)(=O)c1cc2c3c(c1)CC(=O)N3CCC2 | inactive: -0.579% |

| Compound | activity change, negative = inhibition |
| --- | --- |
| CCn1cnc2sc(C(=O)Nc3ccc4c(c3)OCO4)c(C)c2c1=O | inactive: 0.157% |
| CCOc1ccc(NCc2nnc(SCC(=O)Nc3cc(C)on3)n2-c2ccccc2OC)cc1 | inactive: 0.492% |
| Cc1ccc(S(=O)(=O)Nc2ccc3c(c2)C(=O)N([C@H](C)CO)C[C@H](C)[C@@H](CN(C)Cc2ccc(-c4ccccc4)cc2)O3)cc1 | inactive: -0.118% |
| CCCn1c(SCC(=O)NNC(=O)c2ccc(C)cc2)nnc1C(C)C | inactive: 1.33% |
| Cc1sc2nc(CN3CCOCC3)nc(NS(=O)(=O)c3cc(Cl)ccc3Cl)c2c1C | inactive: -0.0521% |
| COc1cc2[nH]c(=O)n(CCCCCC(=O)NCCCN3CCCC3=O)c(=O)c2cc1OC | inactive: 0.253% |
| O=C(CSc1nc(-c2ccco2)cc(C(F)(F)F)n1)Nc1ccc(C(=O)N2CCCCC2)cc1 | inactive: -1.01% |
| CCOC(=O)C1CCN(S(=O)(=O)c2cc3c4c(c2)C(C)C(=O)N4CCC3)CC1 (configuration not stated) | inactive: 0.692% |
| COc1cc(-c2nc(-c3cccc(C)c3)no2)cc(OC)c1OC | inactive: -0.243% |
| Cc1noc(C)c1NC(=O)N(C)C[C@H]1Oc2ccc(NC(=O)Cn3cnnn3)cc2C(=O)N([C@H](C)CO)C[C@@H]1C | inactive: -0.141% |
| O=C(NCc1ccccc1)c1ccc2c(c1)OCCO2 | inactive: 1.27% |
| Cc1cc(C)c(NC(=O)CS(=O)CC(=O)Nc2ccc(F)cc2F)c(C)c1 (configuration not stated) | inactive: -0.338% |
| Cc1sc2c(c1C)C(=O)/C(=C\Nc1ccccn1)S(=O)(=O)N2C | inactive: 0.146% |
| COc1cccc(/C=N/Nc2nc3ccccc3[nH]2)c1O | inactive: -1% |
| CNc1nc2c(c(=O)[nH]c(=O)n2C)n1CCCc1ccccc1 | inactive: 0.246% |
| CC(C)N(C(=O)[C@H]1CC(CC(=O)NCc2cccc(C(F)(F)F)c2)C(=O)N2CCc3c([nH]c4ccccc34)[C@]12C)C(C)C (some centres not stated) | inactive: -0.336% |
| O=c1[nH]cc(N=Cc2cc(Cl)cc(Cl)c2O)c(=O)[nH]1 | inactive: 0.212% |
| CC(=O)c1sc(NC(=O)c2ccc(C)cc2)nc1C | inactive: 0.775% |
| CCN(CC)C(CNS(=O)(=O)c1ccc(Cl)cc1)c1ccccc1 (configuration not stated) | inactive: -0.496% |
| O=C(N/N=C/c1nn(-c2ccccc2)cc1-c1ccccc1)c1ccncc1 | inactive: 0.63% |
| CC(O)CNc1nc2ccccc2n1CC(=O)NC12CC3CC(CC(C3)C1)C2 (configuration not stated) | inactive: 0.442% |

| Compound | activity change, negative = inhibition |
| --- | --- |
| O=C(NCc1ccccn1)c1ccc(OC2CCN(Cc3cccs3)CC2)cc1 | inactive: -0.641% |
| CC1SC(=NC(=O)C(C)N2C(=O)c3ccccc3C2=O)NC1=O (configuration not stated) | inactive: 0.0806% |
| COc1ccccc1C(c1nnnn1Cc1ccccc1)N1CCN(C2CCCC2)CC1 (configuration not stated) | inactive: 0.0105% |
| CCOc1cccc(SCc2noc(C(=O)NC(C)C)c2C(=O)O)c1 | inactive: -0.232% |
| O=C(Nc1ccccc1)N(CCc1nc2ccccc2[nH]1)C1CCCC1 | inactive: -0.0234% |
| O=c1oc2ccccc2c2c1C(c1ccc(Cl)cc1)Nc1ccc3ccccc3c1-2 (configuration not stated) | inactive: -0.0547% |
| Cc1ccccc1C(=O)Nc1ccccc1C(=O)NC1CC1 | inactive: -0.181% |
| C#CCOCCOCCOCCNc1nc(N2CCN(C(=O)[C@H](CCC(=O)O)n3cc([C@@H](N)[C@H](C)CC)nn3)CC2)nc(N2CCN(C(=O)[C@H](CCCCN)n3cc([C@@H](N)CC(N)=O)nn3)CC2)n1 | inactive: -0.316% |
| CCN(C[C@H]1N[C@@](C)(C(=O)OC)[C@H]2C(=O)N(Cc3ccccc3)C(=O)[C@@H]12)C(=O)Nc1ccc(Cl)cc1 | inactive: 0.00139% |
| Cc1cccc(OCc2nnc(SCC(=O)Nc3cccc(C(=O)N4CCOCC4)c3)o2)c1C | inactive: 0.472% |
| CCCCN(C(=S)NC(=O)c1cc(OC)c(OC)c(OC)c1)c1c(N)n(Cc2ccccc2)c(=O)[nH]c1=O | inactive: 0.436% |
| COc1ccc(-c2nn3c(-c4ccco4)nnc3s2)cc1OC | inactive: -1.07% |
| COc1cc(C#N)c(N=C(SCC#N)N2CCOCC2)cc1OC | inactive: -0.819% |
| CC(C)(C)OC(=O)CNC(=O)c1[nH]cnc1C(=O)N[C@@H](CCCCN)C(=O)OC(C)(C)C | inactive: 0.233% |
| O=C(NCc1ccccn1)c1cn(Cc2ccccc2)nn1 | inactive: -1.16% |
| CC(C)(C)C1CCc2[nH]c3ccccc3c(=O)c2C1 (configuration not stated) | inactive: -0.261% |
| O=S(=O)(Nc1ncnc2sc3c(c12)CCC3)c1ccc(Cl)s1 | inactive: 0.634% |
| COC(=O)c1cc(C#N)c(OC)nc1C | inactive: -0.0219% |
| O=C(NCC(c1ccco1)N1CCN(c2ccc(F)cc2)CC1)OCc1ccccc1 (configuration not stated) | inactive: 0.174% |
| Cc1noc(C)c1NC(=O)N(C)C[C@H]1Oc2ccc(NC(=O)C3CCCCC3)cc2C(=O)N([C@H](C)CO)C[C@@H]1C | inactive: -0.199% |
| Cc1ccc(-n2nnc3c(SCC(=O)NCC4CCCO4)ncnc32)cc1 (configuration not stated) | inactive: -0.442% |

4 neighbouring entries from above:

| Compound | activity change, negative = inhibition |
| --- | --- |
| O=c1oc2ccccc2c2c1C(c1ccc(Cl)cc1)Nc1ccc3ccccc3c1-2 (configuration not stated) | inactive: -0.0547% |
| Cc1ccccc1C(=O)Nc1ccccc1C(=O)NC1CC1 | inactive: -0.181% |
| C#CCOCCOCCOCCNc1nc(N2CCN(C(=O)[C@H](CCC(=O)O)n3cc([C@@H](N)[C@H](C)CC)nn3)CC2)nc(N2CCN(C(=O)[C@H](CCCCN)n3cc([C@@H](N)CC(N)=O)nn3)CC2)n1 | inactive: -0.316% |
| CCN(C[C@H]1N[C@@](C)(C(=O)OC)[C@H]2C(=O)N(Cc3ccccc3)C(=O)[C@@H]12)C(=O)Nc1ccc(Cl)cc1 | inactive: 0.00139% |

(listing goes on)

| Compound | activity change, negative = inhibition |
| --- | --- |
| COc1ccc(N(Cc2cc3cccc(C)c3[nH]c2=O)S(C)(=O)=O)cc1 | inactive: -1.29% |
| COc1ccc(C(=O)OCCc2sc[n+](CC(=O)c3ccccc3)c2C)cc1 | inactive: 0.664% |
| Cc1noc(C)c1NC(=O)Nc1ccc2c(c1)C(=O)N([C@H](C)CO)C[C@H](C)[C@@H](CN(C)C(=O)NC1CCCCC1)O2 | inactive: -0.0795% |
| Cc1ccc(NC(=O)CSc2cccc[n+]2[O-])c([N+](=O)[O-])c1 | inactive: 0.529% |
| c1csc(-c2nc3nc4ccccc4nc3n2Cc2ccc3c(c2)OCO3)c1 | inactive: 0.811% |
| Cc1nnsc1C(=O)NNS(=O)(=O)c1ccccc1 | inactive: 0.0683% |
| CCN(C(=O)c1sc(N)c(C#N)c1C)C1CCCCC1 | inactive: 0.222% |
| O=C(Cn1cnc2ccccc2c1=O)Nc1ccc2c(c1)CCC2 | inactive: -0.000494% |
| CCCCC(=O)NC(NC(=S)N1CCOCC1)C(Cl)(Cl)Cl (configuration not stated) | inactive: 0.00697% |
| C[C@H](CO)N1C[C@H](C)[C@@H](CN(C)S(=O)(=O)c2cn(C)cn2)Oc2ccc(NC(=O)C3CC3)cc2C1=O | inactive: 0.228% |
| N=c1n(CCCOc2ccccc2Cl)c2ccccc2n1CC(N)=O | inactive: 0.0205% |
| NCCN1CCN2C(=O)CN(C(=O)c3ccccc3)CC12 (configuration not stated) | inactive: 0.941% |
| CN(C)c1cccc(C(=O)Nc2cc(C(F)(F)F)ccc2-n2cnc3ccccc32)c1 | inactive: 0.359% |
| CC1CN(C)C(C)CC1NCc1ccc2c(c1)OCO2 (configuration not stated) | inactive: -0.093% |
| CC(=O)NS(=O)(=O)c1ccc(NC(=O)CSc2ccc(Cl)cc2)cc1 | inactive: 0.0618% |
| O=C(COC(=O)C1(c2ccc(Cl)cc2)CCCC1)NC1CCS(=O)(=O)C1 (configuration not stated) | inactive: -0.245% |
| C[C@H](CO)N1C[C@H](C)[C@@H](CN(C)S(=O)(=O)c2ccc(F)cc2)Oc2ccc(NS(=O)(=O)c3cccs3)cc2C1=O | inactive: 0.439% |
| O=C(C[C@H]1C/C=C/CC[C@@H](Cc2ccc(F)cc2)C(=O)O[C@@H](c2ccccc2)CNC1=O)NCCO | inactive: 0.262% |
| CC(=O)N1CCN(c2ccc([N+](=O)[O-])c(-n3nc(C)cc3C)c2)CC1 | inactive: 0.213% |
